Experimental data: PMC5114397

Target: Myc-sdk-1Δ (C-terminal deletion mutant of the adhesion molecule sidekick-1)
Test: co-IP; 293T cells doubly transfected with a Myc-tagged bait and a FLAG-tagged prey; total cellular lysates incubated with Myc beads overnight at 4 °C, beads washed three times and boiled; Western blot with anti-FLAG M2

| binding | Binder |
| --- | --- |
| no binding | FLAG-tagged neph1 (protein, UniProt Q96J84 17-757) QGTQTRFSQEPADQTVVAGQRAVLPCVLLNYSGIVQWTKDGLALGMGQGLKAWPRYRVVGSADAGQYNLEITDAELSDDASYECQATEAALRSRRAKLTVLIPPEDTRIDGGPVILLQAGTPHNLTCRAFNAKPAATIIWFRDGTQQEGAVASTELLKDGKRETTVSQLLINPTDLDIGRVFTCRSMNEAIPSGKETSIELDVHHPPTVTLSIEPQTVQEGERVVFTCQATANPEILGYRWAKGGFLIEDAHESRYETNVDYSFFTEPVSCEVHNKVGSTNVSTLVNVHFAPRIVVDPKPTTTDIGSDVTLTCVWVGNPPLTLTWTKKDSNMVLSNSNQLLLKSVTQADAGTYTCRAIVPRIGVAEREVPLYVNGPPIISSEAVQYAVRGDGGKVECFIGSTPPPDRIAWAWKENFLEVGTLERYTVERTNSGSGVLSTLTINNVMEADFQTHYNCTAWNSFGPGTAIIQLEEREVLPVGIIAGATIGASILLIFFFIALVFFLYRRRKGSRKDVTLRKLDIKVETVNREPLTMHSDREDDTASVSTATRVMKAIYSSFKDDVDLKQDLRCDTIDTREEYEMKDPTNGYYNVRAHEDRPSSRAVLYADYRAPGPARFDGRPSSRLSHSSGYAQLNTYSRGPASDYGPEPTPPGPAAPAGTDTTSQLSYENYEKFNSHPFPGAAGYPTYRLGYPQAPPSGLERTPYEAYDPIGKYATATRFSYTSQHSDYGQRFQQRMQTHV |
| no binding | FLAG-tagged nephrin (protein, UniProt O60500 23-1241) QLAIPASVPRGFWALPENLTVVEGASVELRCGVSTPGSAVQWAKDGLLLGPDPRIPGFPRYRLEGDPARGEFHLHIEACDLSDDAEYECQVGRSEMGPELVSPRVILSILVPPKLLLLTPEAGTMVTWVAGQEYVVNCVSGDAKPAPDITILLSGQTISDISANVNEGSQQKLFTVEATARVTPRSSDNRQLLVCEASSPALEAPIKASFTVNVLFPPGPPVIEWPGLDEGHVRAGQSLELPCVARGGNPLATLQWLKNGQPVSTAWGTEHTQAVARSVLVMTVRPEDHGAQLSCEAHNSVSAGTQEHGITLQVTFPPSAIIILGSASQTENKNVTLSCVSKSSRPRVLLRWWLGWRQLLPMEETVMDGLHGGHISMSNLTFLARREDNGLTLTCEAFSEAFTKETFKKSLILNVKYPAQKLWIEGPPEGQKLRAGTRVRLVCLAIGGNPEPSLMWYKDSRTVTESRLPQESRRVHLGSVEKSGSTFSRELVLVTGPSDNQAKFTCKAGQLSASTQLAVQFPPTNVTILANASALRPGDALNLTCVSVSSNPPVNLSWDKEGERLEGVAAPPRRAPFKGSAAARSVLLQVSSRDHGQRVTCRAHSAELRETVSSFYRLNVLYRPEFLGEQVLVVTAVEQGEALLPVSVSANPAPEAFNWTFRGYRLSPAGGPRHRILSSGALHLWNVTRADDGLYQLHCQNSEGTAEARLRLDVHYAPTIRALQDPTEVNVGGSVDIVCTVDANPILPGMFNWERLGEDEEDQSLDDMEKISRGPTGRLRIHHAKLAQAGAYQCIVDNGVAPPARRLLRLVVRFAPQVEHPTPLTKVAAAGDSTSSATLHCRARGVPNIVFTWTKNGVPLDLQDPRYTEHTYHQGGVHSSLLTIANVSAAQDYALFTCTATNALGSDQTNIQLVSISRPDPPSGLKVVSLTPHSVGLEWKPGFDGGLPQRFCIRYEALGTPGFHYVDVVPPQATTFTLTGLQPSTRYRVWLLASNALGDSGLADKGTQLPITTPGLHQPSGEPEDQLPTEPPSGPSGLPLLPVLFALGGLLLLSNASCVGGVLWQRRLRRLAEGISEKTEAGSEEDRVRNEYEESQWTGERDTQSSTVSTTEAEPYYRSLRDFSPQLPPTQEEVSYSRGFTGEDEDMAFPGHLYDEVERTYPPSGAWGPLYDEVQMGPWDLHWPEDTYQDPRGIYDQVAGDLDTLEPDSLPFELRGHLV |

No constants are given. Whether binding was seen depends on the method and setting. Binding seen in cells or lysates may run through a third protein. Sequences can lack the tags named with a protein.
